Experimental data as given in paper PMC6070540, “SUMO-mediated regulation of NLRP3 modulates inflammasome activity” (Nature Communications, 2018).
No constants are given. Whether binding was seen depends on the method and setting. Binding seen in cells or lysates may run through a third protein. Some results given as binding are weak or reduced against the parent protein; the word gives no strength. One block for each molecule: values may come before it.

By UniProt entry, the sequences of proteins in these tests, tags left out.
UniProt Q96P20: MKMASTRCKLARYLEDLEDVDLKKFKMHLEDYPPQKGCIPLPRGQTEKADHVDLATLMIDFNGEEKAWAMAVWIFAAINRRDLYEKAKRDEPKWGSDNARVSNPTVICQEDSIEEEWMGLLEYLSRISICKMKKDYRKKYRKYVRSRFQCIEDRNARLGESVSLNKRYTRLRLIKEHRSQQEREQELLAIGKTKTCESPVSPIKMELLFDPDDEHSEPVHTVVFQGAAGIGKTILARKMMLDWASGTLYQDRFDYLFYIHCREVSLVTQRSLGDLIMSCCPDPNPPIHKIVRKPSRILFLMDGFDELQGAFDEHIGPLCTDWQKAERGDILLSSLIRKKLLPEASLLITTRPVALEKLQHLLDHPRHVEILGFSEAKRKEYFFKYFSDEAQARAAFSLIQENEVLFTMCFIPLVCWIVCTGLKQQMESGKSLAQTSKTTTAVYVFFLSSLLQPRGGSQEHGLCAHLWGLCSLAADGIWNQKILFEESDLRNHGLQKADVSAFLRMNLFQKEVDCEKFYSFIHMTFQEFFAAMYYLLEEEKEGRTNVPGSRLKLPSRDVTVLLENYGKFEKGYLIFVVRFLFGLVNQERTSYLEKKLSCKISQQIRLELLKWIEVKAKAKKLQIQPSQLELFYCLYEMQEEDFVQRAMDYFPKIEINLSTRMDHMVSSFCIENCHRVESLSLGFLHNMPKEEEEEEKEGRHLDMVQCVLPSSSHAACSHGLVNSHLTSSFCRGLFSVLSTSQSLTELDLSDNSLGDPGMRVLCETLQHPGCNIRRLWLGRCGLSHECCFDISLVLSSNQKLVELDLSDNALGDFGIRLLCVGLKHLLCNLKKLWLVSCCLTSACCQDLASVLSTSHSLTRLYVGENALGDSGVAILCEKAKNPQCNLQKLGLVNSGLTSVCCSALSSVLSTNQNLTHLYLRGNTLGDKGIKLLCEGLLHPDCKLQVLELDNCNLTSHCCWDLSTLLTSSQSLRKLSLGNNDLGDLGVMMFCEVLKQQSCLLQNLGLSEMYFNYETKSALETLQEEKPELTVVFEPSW
UniProt Q969V5: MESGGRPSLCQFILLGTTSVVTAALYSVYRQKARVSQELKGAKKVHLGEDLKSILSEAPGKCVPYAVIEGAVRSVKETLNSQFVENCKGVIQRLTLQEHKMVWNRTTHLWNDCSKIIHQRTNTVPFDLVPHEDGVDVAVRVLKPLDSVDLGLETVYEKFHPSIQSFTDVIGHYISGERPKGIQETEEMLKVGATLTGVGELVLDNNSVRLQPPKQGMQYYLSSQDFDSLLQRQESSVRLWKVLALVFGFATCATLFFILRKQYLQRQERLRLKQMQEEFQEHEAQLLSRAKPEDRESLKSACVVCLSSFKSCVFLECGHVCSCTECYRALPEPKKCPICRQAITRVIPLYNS
UniProt Q8R4B8: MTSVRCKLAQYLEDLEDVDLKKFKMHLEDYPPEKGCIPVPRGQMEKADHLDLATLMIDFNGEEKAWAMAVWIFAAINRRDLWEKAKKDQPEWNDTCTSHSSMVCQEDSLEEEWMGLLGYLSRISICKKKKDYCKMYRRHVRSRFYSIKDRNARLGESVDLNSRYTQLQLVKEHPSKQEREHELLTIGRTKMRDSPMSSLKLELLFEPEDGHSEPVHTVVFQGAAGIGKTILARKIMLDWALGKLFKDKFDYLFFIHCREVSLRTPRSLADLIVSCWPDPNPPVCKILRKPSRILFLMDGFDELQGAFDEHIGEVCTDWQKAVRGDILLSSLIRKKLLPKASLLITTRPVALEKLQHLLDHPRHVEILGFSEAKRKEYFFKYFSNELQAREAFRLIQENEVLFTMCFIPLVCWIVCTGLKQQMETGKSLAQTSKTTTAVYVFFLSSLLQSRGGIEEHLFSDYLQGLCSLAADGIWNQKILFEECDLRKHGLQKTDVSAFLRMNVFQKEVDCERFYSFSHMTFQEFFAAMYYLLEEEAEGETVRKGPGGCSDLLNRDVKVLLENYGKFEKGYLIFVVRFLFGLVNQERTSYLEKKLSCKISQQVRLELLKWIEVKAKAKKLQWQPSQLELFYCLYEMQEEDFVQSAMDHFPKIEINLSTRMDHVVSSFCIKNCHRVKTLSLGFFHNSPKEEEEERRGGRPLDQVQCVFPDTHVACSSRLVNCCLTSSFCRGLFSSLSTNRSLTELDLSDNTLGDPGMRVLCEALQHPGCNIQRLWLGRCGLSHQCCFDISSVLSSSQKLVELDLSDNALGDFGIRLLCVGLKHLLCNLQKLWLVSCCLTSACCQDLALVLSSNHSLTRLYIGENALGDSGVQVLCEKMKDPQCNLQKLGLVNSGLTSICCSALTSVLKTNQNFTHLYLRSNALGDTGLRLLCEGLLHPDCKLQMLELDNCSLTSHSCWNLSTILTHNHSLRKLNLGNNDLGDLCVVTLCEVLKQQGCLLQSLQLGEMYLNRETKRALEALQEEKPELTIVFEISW

Legend:
[1] = molecular target: FLAG-tagged human NLRP3 (human) (UniProt Q96P20); test: co-IP; HEK293T transfected with the indicated plasmids, lysed about 24 h later in 20 mM Tris pH 7.5, 150 mM NaCl, 1% Triton X-100, 10% glycerol, 2 mM EDTA; anti-FLAG or anti-HA agarose beads overnight; glycine elution, western blot
[2] = molecular target: MAPL (mitochondrial-anchored protein ligase) with 2xHA/2xSTREP tag (UniProt Q969V5); test: as above
[3] = molecular target: endogenous NLRP3 of murine BMDMs (mouse (endogenous in immortalised BMDMs)) (UniProt Q8R4B8); test: proximity ligation; Duolink PLA in fixed immortalised WT murine BMDMs treated with LPS (4 h) followed by 10 uM nigericin for 30 min or 5 mM ATP for 20 min; anti-NLRP3 with anti-MAPL, anti-SUMO-2/3 or anti-ASC
[4] = molecular target: endogenous NLRP3 of murine BMDMs (mouse (endogenous in immortalised BMDMs)) (UniProt Q8R4B8); test: proximity ligation; Duolink PLA in fixed immortalised WT murine BMDMs, untreated or primed with LPS (500 ng/ml, 4 h); anti-NLRP3 with anti-MAPL, anti-SUMO-2/3 or anti-ASC; also after non-targeting or Mapl siRNA; Nlrp3-/- BMDMs as control
[5] = molecular target: endogenous NLRP3 of murine BMDMs (mouse (endogenous in immortalised BMDMs)) (UniProt Q8R4B8); test: condition: only LPS (4 h) followed by 30 min with nigericin; proximity ligation; Duolink PLA in fixed immortalised WT murine BMDMs treated with LPS (4 h) followed by 10 uM nigericin for 30 min or 5 mM ATP for 20 min; anti-NLRP3 with anti-MAPL, anti-SUMO-2/3 or anti-ASC

binding [1]: binds
Molecule: MAPL (mitochondrial-anchored protein ligase) with 2xHA/2xSTREP tag (from UniProt Q969V5 1-352)

binding [2]: binds
Molecule: FLAG-tagged human NLRP3 (from UniProt Q96P20 1-1036)

B1: endogenous MAPL of murine BMDMs (protein, UniProt Q8VCM5 1-352)
chain: MESGSRPSLGQVILLGTSSMVTAVLYSIYRQKAQVAQELKGAKKIHLGEDLKGILSEAPGKCVPYAVIEGAVRSVKETLNSQFVENCKGVIQRLSLQEHKMVWNRTTHLWNDYSKIIHQRTNTVPFDLVPHEDGVAVSVRVLKPLDSVDLGLETVYEKFHPSVQSFTDAIGHYISGERPKGIQETEEMLKVGATLTGIGELVLDNNAVRLQPPKQGMQYYLSSQDFDSLLHRQESSVRLWKILVLVFGFATCATLFFILRKQYLHRQERLRQQQLQEEFLEHEAQLLSQASPEDRESLKSACVVCLSNFKSCVFLECGHVCSCRQCYLALPEPKRCPICRREITRVIPLYNS
binding [3]: binds weakly
binding [4]: binds
binding [5]: no binding
